Test results as given in patent publication US10080775B2, “Peptide having skin whitening activity, and use thereof” (CAREGEN CO., LTD., priority 2017, dated 2018).
Not every detail of the peptide structures is certain; ends, links or a residue may be inferred. Peptide text beside a SMILES is read from it.

Key:
[1] = tested on: MITF; test: Change in gene expression of melanin-forming factors (PCR), MITF; assay type: cell-based, mouse; settings: B16F10, α-MSH 200 ng/ml, peptide 100, 200 uM, 24 hours
[2] = tested on: tyrosinase; test: Change in gene expression of melanin-forming factors (PCR), tyrosinase; assay type: cell-based, mouse; settings: B16F10, α-MSH 200 ng/ml, peptide 100, 200 uM, 24 hours
[3] = tested on: melanin-forming cells (B16F10 cell line); test: Measurement of melanin production (absorbance at 490 nm); assay type: cell-based, mouse; settings: B16F10, α-MSH 200 ng/ml, peptide 50, 100, 200 uM, 72 hours; **P≤0.01
[4] = tested on: tyrosinase; test: Change in protein expression of melanin-forming factors (western blot), tyrosinase; assay type: cell-based, mouse; settings: B16F10, α-MSH 200 ng/ml, peptide 50, 100 uM, 72 hours
[5] = tested on: tyrosinase; test: Measurement of tyrosinase expression level (antibody staining, fluorescence microscope); assay type: cell-based, mouse; settings: B16F10, α-MSH 200 ng/ml, peptide 50, 100 uM, 48 hours
[6] = tested on: human keratinocyte line (HaCaT); test: Inhibition of melanosome transfer into keratinocytes using isolated melanosomes (OD 490 nm); assay type: cell-based; settings: melanosomes isolated from B16F10, peptide 10, 50, 100, 200 uM, 48 hours
[7] = tested on: CREB; test: Observation of melanogenesis signaling material (CREB phosphorylation, western blot); assay type: cell-based, mouse; settings: B16F10, α-MSH 200 ng/ml, peptide 50, 100 uM, 10 minutes
[8] = tested on: tyrosinase; test: Measurement of intercellular tyrosinase activity (L-dopa, 475 nm); assay type: cell-based, mouse; settings: B16F10, α-MSH 200 ng/ml, peptide 50, 100, 200 uM, 72 hours; **P≤0.01
[9] = tested on: human keratinocyte line (HaCaT); test: Inhibition of melanosome transfer into keratinocytes using fluorescent-conjugated bioparticles; assay type: cell-based; settings: peptide 100, 200 uM, 24 hours, 0.5% FBS medium
[10] = tested on: C57BL/6 mice; test: In vivo whitening effect, application to the tail; settings: C57BL/6 mice tail skin, liposomal peptide 5,000 ppm once a day, about 8 weeks, versus control group
[11] = tested on: human keratinocyte line (HaCaT); test: Melanosome degradation ability in keratinocytes (OD 490 nm); assay type: cell-based; settings: peptide 100, 200 uM, 48 hours
[12] = tested on: melanin-forming cells (B16F10 cell line); test: Visual observation of melanin production (optical microscope); assay type: cell-based, mouse; settings: B16F10, α-MSH 200 ng/ml, peptide 50, 100, 200 uM, 72 hours
[13] = tested on: MITF; test: Change in protein expression of melanin-forming factors (western blot), MITF; assay type: cell-based, mouse; settings: B16F10, α-MSH 200 ng/ml, peptide 50, 100 uM, 72 hours
[14] = tested on: human keratinocyte line (HaCaT); test: Inhibition of melanosome transfer into keratinocytes using isolated melanosomes (Fontana-Masson staining); assay type: cell-based; settings: melanosomes isolated from B16F10, peptide 10, 50, 100, 200 uM, 48 hours
[15] = tested on: PAR2; test: Change in expression of gene involved in activity and phagocytosis of keratinocytes (PCR); assay type: cell-based, human; settings: HaCaT, trypsin-induced, peptide 100, 200 uM, 16 hours

Question: Which results are given for `CCCC(CCC)C(=O)N[C@H](C(=O)N[C@@H](Cc1c[nH]c2ccccc12)C(=O)N[C@@H](CO)C(=O)N[C@@H](CC(C)C)C(=O)N[C@@H](CC(=O)O)C(=O)N[C@H](C(=O)N[C@@H](CCC(N)=O)C(=O)N[C@@H](Cc1ccc(O)cc1)C(=O)NCC(=O)NCC(=O)N[C@@H](CCCNC(=N)N)C(=O)NCC(=O)N[C@@H](CC(=O)O)C(=O)O)[C@@H](C)O)[C@@H](C)CC` [Valprooyl-Ile-Trp-Ser-Leu-Asp-Thr-Gln-Tyr-Gly-Gly-Arg-Gly-Asp-COOH] (HELM PEPTIDE1{[CCCC(CCC)C(=O)[*:2]].I.W.S.L.D.T.Q.Y.G.G.R.G.D}$$$$V2.0)?
Answer: MITF gene expression [1]: strong effects of inhibiting MITF and tyrosinase genes; tyrosinase gene expression [2]: strong effects of inhibiting MITF and tyrosinase genes; melanogenesis inhibitory effect (melanin production) [3]: in a dose-dependent manner was verified; tyrosinase protein expression inhibitory effect [4]: in a dose-dependent manner was verified; tyrosinase expression inhibitory effect [5]: in a dose-dependent manner was verified; phagocytosis inhibitory effect (amount of melanosomes transferred into keratinocytes, absorbance) [6]: in a dose-dependent manner was verified; degree of phosphorylation of CREB [7]: CREB phosphorylation inhibitory effect; tyrosinase activity inhibitory effect [8]: in a dose-dependent manner was verified; phagocytosis inhibitory effect (amount of bioparticles transferred into keratinocytes, fluorescent microscopic image analysis) [9]: in a dose-dependent manner was verified; amount of melanin distributed in the basal layer of the epidermis (F&M staining) [10]: much smaller than that in the control group; effect to promote the degradation of the melanosomes transferred into the keratinocytes [11]: the effect in a dose-dependent manner was verified; melanogenesis inhibitory effect through cell morphology [12]: in a dose-dependent manner was verified; MITF protein expression inhibitory effect [13]: in a dose-dependent manner was verified; phagocytosis inhibitory effect (amount of melanosomes transferred into keratinocytes, optical microscope image analysis) [14]: in a dose-dependent manner was verified; expression of PAR2 gene [15]: reduced the expression of PAR2 gene in a dose-dependent manner
